Binding data for seven molecules are collected here from paper PMC10748395.

Residue numbers refer to the chain shown, from its start. Numbers in names are those of the source. No constants are given. Whether binding was seen depends on the method and setting. For some assays here: Binding seen in cells or lysates may run through a third protein. Some results given as binding are weak or reduced against the parent protein; the word gives no strength. For some assays here: Sequences can lack the tags named with a protein.

For assay [1], the target named is T1, MACC1 P531A,P534A, yeast two-hybrid fusion (human) (UniProt Q6ZN28).
T1 sequence: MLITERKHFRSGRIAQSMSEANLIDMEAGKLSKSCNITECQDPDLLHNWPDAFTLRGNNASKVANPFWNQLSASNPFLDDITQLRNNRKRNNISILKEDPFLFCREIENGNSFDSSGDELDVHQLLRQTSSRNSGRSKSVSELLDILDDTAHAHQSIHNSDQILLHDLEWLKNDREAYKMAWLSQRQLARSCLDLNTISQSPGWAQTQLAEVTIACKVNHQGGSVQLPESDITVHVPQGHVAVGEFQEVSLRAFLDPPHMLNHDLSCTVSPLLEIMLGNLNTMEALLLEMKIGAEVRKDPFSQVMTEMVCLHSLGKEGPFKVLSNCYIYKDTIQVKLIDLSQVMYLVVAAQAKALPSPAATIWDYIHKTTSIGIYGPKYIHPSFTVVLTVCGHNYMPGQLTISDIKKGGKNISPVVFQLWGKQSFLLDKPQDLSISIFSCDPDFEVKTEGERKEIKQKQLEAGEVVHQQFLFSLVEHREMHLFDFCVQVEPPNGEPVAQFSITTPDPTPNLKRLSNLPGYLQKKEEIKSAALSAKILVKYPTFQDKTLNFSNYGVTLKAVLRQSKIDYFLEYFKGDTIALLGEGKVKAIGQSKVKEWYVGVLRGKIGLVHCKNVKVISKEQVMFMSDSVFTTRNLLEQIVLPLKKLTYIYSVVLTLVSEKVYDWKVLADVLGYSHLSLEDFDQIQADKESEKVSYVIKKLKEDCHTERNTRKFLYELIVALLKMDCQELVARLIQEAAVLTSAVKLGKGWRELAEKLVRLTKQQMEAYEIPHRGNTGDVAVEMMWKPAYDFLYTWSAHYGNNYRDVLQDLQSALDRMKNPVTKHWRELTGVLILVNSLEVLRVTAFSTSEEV
The assay can be described thus: two-hybrid; Gal4 system, vectors pGBT9 and pGAD10 or pGAD424, yeast reporter strain Y187, beta-galactosidase filter assay.

Assay [2] concerns the target T2, MACC1 (Metastasis-associated in colon cancer 1), full-length, yeast two-hybrid fusion (human) (UniProt Q6ZN28).
T2 sequence: T1 sequence with A531P, A534P
The description is as above.

The target of assay [3] is T3, V5-tagged MACC1 (SW480/MACC1 cells) (human) (UniProt Q6ZN28).
T3 sequence: T1 sequence with A531P, A534P
Kind of assay: co-IP; lysates of SW480/MACC1 or SW480/ΔSH3 cells immunoprecipitated with V5 or GIPC1 antibodies (IgG and beta-tubulin antibodies as negative controls), Western blot with GIPC1 or SH3BP4 antibody. A general note: A western blot detects proteins with antibodies after separation by electrophoresis.

The target of assay [4] is T4, GIPC1 in colorectal cancer cell lysates (SW620, SW480) (human (endogenous in SW620 and SW480)) (UniProt O14908).
T4 sequence: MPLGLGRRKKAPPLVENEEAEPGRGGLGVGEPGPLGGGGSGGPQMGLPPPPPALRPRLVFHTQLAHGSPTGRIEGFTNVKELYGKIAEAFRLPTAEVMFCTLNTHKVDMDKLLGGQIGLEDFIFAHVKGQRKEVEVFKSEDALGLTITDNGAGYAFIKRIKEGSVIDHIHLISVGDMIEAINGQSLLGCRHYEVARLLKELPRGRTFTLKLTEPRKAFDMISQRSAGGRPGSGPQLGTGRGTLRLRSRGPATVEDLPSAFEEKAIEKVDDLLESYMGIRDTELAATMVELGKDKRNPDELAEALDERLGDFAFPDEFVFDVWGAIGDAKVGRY
Described as above.

B1: GIPC1 (GAIP C-Terminus-Interacting Protein PDZ Domain Containing Family, Member 1), full-length, yeast two-hybrid fusion (protein, UniProt O14908 1-333)
chain: T4 sequence
In the case of B1, the binding entry in assay [1] and in assay [2] was “binds” each time.

B2: GIPC1 H191D, yeast two-hybrid fusion (protein, UniProt O14908 1-333)
chain: T4 sequence with H191D
Turning to B2, in assay [2], the binding result was “binds”.

B3: GIPC1 in colorectal cancer cell lysates (SW620, SW480) (protein, UniProt O14908 1-333)
chain: T4 sequence
For the molecule B3, the binding entry in assay [3] is “binds”.

B4: GIPC2 (species not named for this test), yeast two-hybrid fusion (protein, UniProt Q8TF65 1-315)
chain: MPLKLRGKKKAKSKETAGLVEGEPTGAGGGSLSASRAPARRLVFHAQLAHGSATGRVEGFSSIQELYAQIAGAFEISPSEILYCTLNTPKIDMERLLGGQLGLEDFIFAHVKGIEKEVNVYKSEDSLGLTITDNGVGYAFIKRIKDGGVIDSVKTICVGDHIESINGENIVGWRHYDVAKKLKELKKEELFTMKLIEPKKAFEIELRSKAGKSSGEKIGCGRATLRLRSKGPATVEEMPSETKAKAIEKIDDVLELYMGIRDIDLATTMFEAGKDKVNPDEFAVALDETLGDFAFPDEFVFDVWGVIGDAKRRGL
B4: in assay [2], the binding entry is given as “binds”.

B5: SH3BP4 in SW480 cell lysate (protein, UniProt Q9P0V3 1-963)
chain: MAAQRIRAANSNGLPRCKSEGTLIDLSEGFSETSFNDIKVPSPSALLVDNPTPFGNAKEVIAIKDYCPTNFTTLKFSKGDHLYVLDTSGGEWWYAHNTTEMGYIPSSYVQPLNYRNSTLSDSGMIDNLPDSPDEVAKELELLGGWTDDKKVPGRMYSNNPFWNGVQTNPFLNGNVPVMPSLDELNPKSTVDLLLFDAGTSSFTESSSATTNSTGNIFDELPVTNGLHAEPPVRRDNPFFRSKRSYSLSELSVLQAKSDAPTSSSFFTGLKSPAPEQFQSREDFRTAWLNHRKLARSCHDLDLLGQSPGWGQTQAVETNIVCKLDSSGGAVQLPDTSISIHVPEGHVAPGETQQISMKALLDPPLELNSDRSCSISPVLEVKLSNLEVKTSIILEMKVSAEIKNDLFSKSTVGLQCLRSDSKEGPYVSVPLNCSCGDTVQAQLHNLEPCMYVAVVAHGPSILYPSTVWDFINKKVTVGLYGPKHIHPSFKTVVTIFGHDCAPKTLLVSEVTRQAPNPAPVALQLWGKHQFVLSRPQDLKVCMFSNMTNYEVKASEQAKVVRGFQLKLGKVSRLIFPITSQNPNELSDFTLRVQVKDDQEAILTQFCVQTPQPPPKSAIKPSGQRRFLKKNEVGKIILSPFATTTKYPTFQDRPVSSLKFGKLLKTVVRQNKNHYLLEYKKGDGIALLSEERVRLRGQLWTKEWYIGYYQGRVGLVHTKNVLVVGRARPSLCSGPELSTSVLLEQILRPCKFLTYIYASVRTLLMENISSWRSFADALGYVNLPLTFFCRAELDSEPERVASVLEKLKEDCNNTENKERKSFQKELVMALLKMDCQGLVVRLIQDFVLLTTAVEVAQRWRELAEKLAKVSKQQMDAYESPHRDRNGVVDSEAMWKPAYDFLLTWSHQIGDSYRDVIQELHLGLDKMKNPITKRWKHLTGTLILVNSLDVLRAAAFSPADQDDFVI
In the case of B5, the binding entry in assay [4] is “binds”.

B6: human GIPC3, yeast two-hybrid fusion (protein, UniProt Q8TF64 1-312)
chain: MEGAAAREARGTETPRASAPPPAPSEPPAAPRARPRLVFRTQLAHGSPTGKIEGFTNVRELYAKIAEAFGIAPTEILFCTLNSHKVDMQKLLGGQIGLEDFIFAHVRGETKEVEVTKTEDALGLTITDNGAGYAFIKRIKEGSIINRIEAVCVGDSIEAINDHSIVGCRHYEVAKMLRELPKSQPFTLRLVQPKRAFDMIGQRSRSSKCPVEAKVTSGRETLRLRSGGAATVEEAPSEFEEEASRKVDDLLESYMGIRDPELASTMVETSKKTASAQEFARCLDSVLGEFAFPDEFVVEVWAAIGEAREACG
For B6, the binding result in assay [2] is reported as “binds”.

B7: GIPC1 C-terminal segment (aa 222-333), yeast two-hybrid fusion (domain or fragment, UniProt O14908 222-333)
chain: SQRSAGGRPGSGPQLGTGRGTLRLRSRGPATVEDLPSAFEEKAIEKVDDLLESYMGIRDTELAATMVELGKDKRNPDELAEALDERLGDFAFPDEFVFDVWGAIGDAKVGRY
Turning to B7, the binding entry in assay [2] is “binds”.
